Assay results reported in doi:10.1101/2020.01.04.893909 (bioRxiv, 2020).
Results are given in words; binding and its absence hold for the method and conditions named.

Biological target: S. pombe homologue of GAP (Rna1), recombinant (S. pombe) (UniProt P41391)
Test: SEC

B1: S. pombe homologue of GAP (Rna1), recombinant (protein, UniProt P41391 1-386)
chain: MSRFSIEGKSLKLDAITTEDEKSVFAVLLEDDSVKEIVLSGNTIGTEAARWLSENIASKKDLEIAEFSDIFTGRVKDEIPEALRLLLQALLKCPKLHTVRLSDNAFGPTAQEPLIDFLSKHTPLEHLYLHNNGLGPQAGAKIARALQELAVNKKAKNAPPLRSIICGRNRLENGSMKEWAKTFQSHRLLHTVKMVQNGIRPEGIEHLLLEGLAYCQELKVLDLQDNTFTHLGSSALAIALKSWPNLRELGLNDCLLSARGAAAVVDAFSKLENIGLQTLRLQYNEIELDAVRTLKTVIDEKMPDLLFLELNGNRFSEEDDVVDEIREVFSTRGRGELDELDDMEELTDEEEEDEEEEAESQSPEPETSEEEKEDKELADELSKAHI
For B1, the binding was “no binding”.
